The whole screen tested about 400,000 compounds, of which about 13,000 (3.2%) were called active. Inconclusive means that the source gave no clear call. Such entries were picked first, then a sample of the others. Calls follow the shape of the dose curve; as a rule, active = well fitted cell-killing curve with a large enough effect; inconclusive = small, poorly fitted or top-dose-only effect, or effect the other way; inactive = flat fitted curve, though single readings scatter. Where the call is inconclusive, the potency comes from a doubtful curve fit.
experiment: qHTS assay for MDR1-selective chemotherapeutics: Primary screen using the drug-selected MDR subline cells KB-V1; conditions: KB-V1 MDR cells viability, CellTiter-Glo, 72 h; activity change, negative = cytotoxicity: at 46.1 µM (top of the series); also: nearly all actives have a fitted effect of over 60% in size
Method in brief: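 Cells of the MDR subline KB-V1 are plated, dosed with compound at multiple concentrations, and incubated 72 h at 37 degrees C; CellTiter-Glo is then added and luminescence read after 10 min.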
% is scaled to controls: 0 for no effect and ±100 for the full control effect; potency is read from the fitted curve at half-maximal effect.

Compound	Potency	activity change, negative = cytotoxicity
Brc1ccc(-c2csc3ncnc(-n4nnc5ccccc54)c23)cc1	inconclusive: 18.4 µM [cytotoxic, single point]	
NC(=O)c1ncn([C@@H]2O[C@H](CNCc3ccc(OCC(=O)Nc4ccccn4)cc3)[C@@H](O)[C@H]2O)n1	inactive	
O=C(CN1C(=O)C2CC=CCC2C1=O)NCC(=O)Nc1ccc(F)c(F)c1F (stereo not given)	inconclusive: 16.4 µM [rising, partial curve]	
COc1ccc(NC(=O)C23CC4CC(C2)CC(n2cnc(Br)n2)(C4)C3)cc1Cl	active: 9.2 µM	
COc1ccc(-c2cc(C(=O)N/N=C/c3cccnc3)c3cc(C)cc(C)c3n2)cc1	inconclusive: 18.4 µM [cytotoxic, partial curve]	
Fc1ccc(N2CCN(Cc3nnc(-c4ccccc4Cl)o3)CC2)cc1	inactive	
O=C1c2[nH]nc(-c3ccccc3O)c2C(c2cccc(OCc3ccccc3)c2)N1CCCO (stereo not given)	inactive	
Cc1ccc(S(=O)(=O)N2[C@H](CC(=O)c3ccccc3)OC[C@@H]2C)cc1	inconclusive: 20.6 µM [cytotoxic, single point]	
CC(=O)/C(CN1CCCCC1)=N\O	inactive	
Nc1[nH]c(C(=O)c2ccccc2)c(-c2ccc(Cl)cc2Cl)c1C(=O)NCCc1c[nH]c2ccccc12	inactive	
COc1ccc(C(=O)OCC(=O)NC(=O)NC2CCCC2)cc1OC	inconclusive: 29.1 µM [cytotoxic, single point]	
O=C(Nc1ccccc1-c1nnc(SCc2ccc(Cl)cc2)o1)c1ccccc1	inconclusive: 10.3 µM [cytotoxic, partial curve, poor fit]	
CCc1cccc(C)c1NC(=O)C1CC(=O)N(C2CCCC2)C1 (stereo not given)	inactive	
OC(C1=C/C(=C\c2ccncc2)c2ccccc21)c1ccncc1 (stereo not given)	active: 16.4 µM	
CCOc1ccc(NC(=O)CSc2ncc(S(=O)(=O)c3ccc(F)c(C)c3)c(=O)[nH]2)cc1	inactive	
CCCCN(CC)CCNC(=S)Nc1ccc2nc(N3CCN(C)CC3)cc(C)c2c1	inactive	
Cc1nc2ncnn2c(C)c1Cc1ccc(Cl)cc1	inconclusive: 7.94 µM [cytotoxic, partial curve, poor fit]	
CC(C)n1ncc2c(C(=O)Nc3ccc(S(C)(=O)=O)cc3)cc(C3CC3)nc21	inactive	
COc1ccc(S(=O)(=O)N(C)C[C@H]2OCc3cnnn3CCCC(=O)N([C@H](C)CO)C[C@H]2C)cc1	inconclusive: 5.8 µM [rising, full curve, poor fit]	
COc1ccc(/C=N/n2c(SC)nnc2-c2ccccc2)c(OC)c1OC	active: 5.17 µM	
CCOC(=O)c1ccc(NC(=O)c2nc[nH]c2C(=O)NCCNC(=O)c2[nH]cnc2C(=O)Nc2ccc(C(=O)OCC)cc2)cc1	inconclusive: 20.6 µM [rising, single point]	
Cc1ccc(CNc2nc(-c3ccco3)nn2C(=O)c2ccccc2[N+](=O)[O-])cc1	inconclusive: 29.1 µM [rising, single point]	
Cc1ccc(CN2C(=O)N/C(=C/c3ccc(-c4ccc(C(=O)O)cc4)o3)C2=O)cc1	inactive	
Cc1onc(-c2ccccc2)c1C(=O)N[C@@H]1C(=O)N2C1SC(C)(C)[C@@H]2C(=O)O (stereo not given in full)	inactive	

Compound	Potency	activity change, negative = cytotoxicity
COc1ccc(/C=C/C(=O)NCc2c(C)nn(C)c2C)cc1COc1ccc(Br)cc1	inactive	
O=C(NCCc1ccc(C(F)(F)F)cc1)C1CCC(=O)N(CCc2cccc(F)c2)C1 (stereo not given)	inconclusive: 13 µM [cytotoxic, partial curve]	
CC(C)Cn1c(=S)[nH]c2cc(C(=O)NCc3ccccc3F)ccc2c1=O	inconclusive: 20.6 µM [cytotoxic, single point]	
CCc1ccc(C(c2ccccc2)c2c(C)[nH]c3ccccc23)s1 (stereo not given)	inactive	
Cc1cc(C)c(NC(=O)CSc2nc3ccccc3c3nc(-c4ccccc4)nn23)c(C)c1	inactive	
COc1ccc(Cl)cc1C(=O)Nc1ccc2nc3n(c(=O)c2c1)CCCC3	inconclusive: 23.1 µM [cytotoxic, single point]	
CCCCOc1cccc(C(=O)NC(=S)Nc2cccc(C(F)(F)F)c2)c1	inactive	
CCc1ccc(NC(=O)c2cnn3c(C)cc(C)nc23)cc1	inconclusive: 3.66 µM [rising, full curve]	
CCn1c(SCC(=O)N2c3ccccc3Sc3ccccc32)nc2c1c(=O)n(C)c(=O)n2C	inconclusive: 9.2 µM [cytotoxic, partial curve]	
CN(CC(=O)Nc1ccc(F)cc1)C(=O)COC(=O)c1ccc(=O)n(Cc2ccccc2)n1	inactive	
CC(NC(=O)c1cccc(C(F)(F)F)c1)C1CCCO1 (stereo not given)		inconclusive: 31.1%
COc1ccc(CCNC(=O)c2sc3nc4n(c(=O)c3c2C)CCC4)cc1	inconclusive: 8.2 µM [cytotoxic, partial curve]	
O=C(Nc1cccc([N+](=O)[O-])c1)c1ccc2c(c1)OCCO2	active: 20.6 µM	
COc1cccc(-c2ccc(-c3noc(-c4ccccc4F)n3)c(OC)n2)c1	inconclusive: 20.6 µM [cytotoxic, partial curve, poor fit]	
Cc1ccccc1NC(=O)Nc1nc(C2CCC(=O)N2)cs1 (stereo not given)	inactive	
O=C(c1ccc(CS(=O)c2cccc(Cl)c2)o1)N1CCN(c2ccccn2)CC1 (stereo not given)	inconclusive: 5.17 µM [cytotoxic, full curve, poor fit]	
COc1ccc(CN2CCCC(N3CCN(c4cccc(Cl)c4)CC3)C2)cc1OC (stereo not given)	inactive	
CCOC(=O)c1sc2ccccc2c1S(=O)(=O)Nc1cc(OC)ccc1OC	inactive	
Cc1ccnc(SCCn2c(N3CC(C)OC(C)C3)nc3c2c(=O)n(C)c(=O)n3C)n1 (stereo not given)	inconclusive: 23.1 µM [cytotoxic, partial curve, poor fit]	
CCn1c(SCC(=O)Nc2cc(OC)ccc2OC)nnc1C1CCCCC1	inconclusive: 1.84 µM [cytotoxic, full curve, poor fit]	
O=S(=O)(c1cccc(Cl)c1)N1CCC(c2nc3ccccc3[nH]2)CC1	active: 8.2 µM	
Cc1ccc(OCCNC(=O)[C@H]2O[C@@H](n3cnc4c(N)ncnc43)[C@H](O)[C@@H]2O)cc1C	inactive	
CC(C)=NOc1cc(NC(=O)CCl)cc([N+](=O)[O-])c1	active: 16.4 µM	
COc1ccc(-c2csc(-n3cccn3)n2)cc1	inactive	

Grouped by structure: those above containing a COOH group.
Compound	Potency	activity change, negative = cytotoxicity
Cc1ccc(CN2C(=O)N/C(=C/c3ccc(-c4ccc(C(=O)O)cc4)o3)C2=O)cc1	inactive	
Cc1onc(-c2ccccc2)c1C(=O)N[C@@H]1C(=O)N2C1SC(C)(C)[C@@H]2C(=O)O (stereo not given in full)	inactive	

(further entries)

Compound	Potency	activity change, negative = cytotoxicity
O=C(COc1ccccc1)N(CCc1ccccc1)c1nc(-c2ccc(F)cc2)cs1	active: 14.6 µM	
CCCCOC(=O)c1ccc(NC(=O)C(=O)NCc2ccncc2)cc1	inconclusive: 29.1 µM [cytotoxic, single point]	
CCO[C@@H]1OC(C(N)=O)=C[C@H](C2CC2)[C@H]1CCCO	inconclusive: 29.1 µM [rising, single point]	
CC1CCCN(Cc2nc3c(c(=O)n(C)c(=O)n3C)n2CCCc2ccccc2)C1 (stereo not given)	inconclusive: 23.1 µM [cytotoxic, single point]	
CCCCNC(=O)c1ccc2nc(-c3cccs3)c(-c3cccs3)nc2c1	inactive	
CC1CCc2cc(F)ccc2N1C(=O)c1ccncc1 (stereo not given)	inconclusive: 6.51 µM [rising, partial curve, poor fit]	
Cc1ccc(C)c(N2CCN(S(=O)(=O)c3ccc4[nH]c5c(c4c3)CCCC5)CC2)c1	inconclusive: 32.6 µM [cytotoxic, single point]	
Cc1ccc2nc(-c3ccccc3Cl)cc(C(=O)Nc3cc(C)on3)c2c1	inconclusive: 9.2 µM [cytotoxic, partial curve]	
CCN(C[C@H]1N[C@@](CC)(C(=O)OC)[C@H]2C(=O)N(Cc3ccccc3)C(=O)[C@@H]12)C(=O)Nc1ccc(C(F)(F)F)cc1	inactive	
OC(c1ccc(Cl)c(F)c1)c1ncc(-c2cccc3ccccc23)[nH]1 (stereo not given)	inconclusive: 29.1 µM [cytotoxic, single point]	
C=C1C(=O)O[C@@H]2C[C@@H](C)[C@@H]3C=CC(=O)[C@@]3(C)[C@@H](OC(C)=O)[C@H]12	active: 14.6 µM	
OC(CN1CCOCC1)c1ccccc1 (stereo not given)	inactive	
O=C(NCc1ccccc1)C1CCC(CNS(=O)(=O)c2cccs2)CC1 (stereo not given)	inconclusive: 16.4 µM [cytotoxic, single point]	
CC1N(C)c2cc(NC(=O)c3ccco3)c(P(=O)(Nc3ccc([N+](=O)[O-])cc3)N3CCOCC3)cc2C1(C)C (stereo not given)	inactive	
Cc1ccc2cc(CN(CC3CCCO3)C(=O)Nc3ccccc3F)c3nnnn3c2c1 (stereo not given)	inconclusive: 16.4 µM [cytotoxic, single point]	
COc1ccc(Br)c(/C=N/NC(=O)COc2ccc(-c3ccccc3)cc2)c1	inconclusive: 29.1 µM [cytotoxic, single point]	
Cc1ccn2cc(-c3cccc(S(=O)(=O)N4CCCC4)c3)nc2c1	inconclusive: 29.1 µM [cytotoxic, single point]	
Cc1nc(SCC(=O)Nc2ccc3c(c2)OCCO3)nc(C)c1C	inconclusive: 16.4 µM [cytotoxic, partial curve, poor fit]	
COc1ccc(CSc2cccc3cccnc23)cc1[N+](=O)[O-]	inconclusive: 32.6 µM [cytotoxic, single point]	
O=C(c1ccccc1)c1ccc2nc(N3CCCCC3)c3nncn3c2c1	inconclusive: 14.6 µM [cytotoxic, partial curve, poor fit]	
Cc1cccc(OC(C)C(=O)Nc2nccs2)c1 (stereo not given)	inactive	
COc1ccccc1CNCC(O)(c1ccc(Cl)cc1)c1ccc(Cl)cc1	inconclusive: 32.6 µM [cytotoxic, partial curve, poor fit]	

Some of the entries so far, as a markdown table:

| Compound | Potency | activity change, negative = cytotoxicity |
| --- | --- | --- |
| OC(c1ccc(Cl)c(F)c1)c1ncc(-c2cccc3ccccc23)[nH]1 (stereo not given) | inconclusive: 29.1 µM [cytotoxic, single point] |  |
| C=C1C(=O)O[C@@H]2C[C@@H](C)[C@@H]3C=CC(=O)[C@@]3(C)[C@@H](OC(C)=O)[C@H]12 | active: 14.6 µM |  |

From PubChem BioAssay AID1347076 (National Center for Advancing Translational Sciences (NCATS), 2019)
